Assay results from the supplement of paper PMC7238544.
Structures can show the parent of a compound that is named as a salt. ± gives the standard deviation of the averaged measurements. The list shows a part of the results. The data scatter; read single values as rough.

system: hAMSC donor 2; experiment: transfection efficiency (EGFP+ cells / Hoechst count) fold change vs vehicle control (ratio); hAMSC are human adipose-derived mesenchymal stem cells given an EGFP-luciferase plasmid by lipofection; higher = enhanced transfection; conditions: priming compound concentration 1.7 µM

Structure (SMILES)	transfection efficiency
COC(=O)N1CCN(C(=O)Cc2ccc(Cl)c(Cl)c2)C(CN2CCCC2)C1 (centres undefined)	1.08 ± 0.13
c1ccc(Cn2ccnc2)cc1 [Benzylimidazole]	1.19 ± 0.11
O=C1CN=C(c2ccccc2)c2cc([N+](=O)[O-])ccc2N1 [Nitrazepam]	1.49 ± 0.052
C[C@]12CC[C@H](O)CC1=CC[C@@H]1[C@@H]2CC[C@]2(C)C(=O)CC[C@@H]12 [Dehydroepiandrosterone]	1.07 ± 0.16
O=C1CC[C@@]2(O)[C@H]3Cc4ccc(O)c5c4[C@@]2(CCN3CC2CC2)[C@H]1O5 [Naltrexone hydrochloride]	1.1 ± 0.015
N=C(NCc1ccc(Cl)cc1)SCCCc1c[nH]cn1 [Clobenpropit]	0.913 ± 0.11
C=C(C)[C@@H]1[C@H]2OC(=O)[C@@H]1[C@]1(O)C[C@H]3O[C@]34C(=O)O[C@H]2[C@]14C.CC(C)(O)[C@@H]1[C@H]2OC(=O)[C@@H]1[C@]1(O)C[C@H]3O[C@]34C(=O)O[C@H]2[C@]14C [Picrotin - Picrotoxinin]	0.915 ± 0.093
C[C@]12Cc3c[nH]nc3C[C@@H]1CC[C@@H]1[C@@H]2CC[C@@]2(C)[C@H]1CC[C@]2(C)O [Stanozolol]	1.31 ± 0.13
C[N+]1(C)CCCC(OC(=O)C(O)(c2ccccc2)c2ccccc2)C1 (centres undefined) [Mepenzolate bromide]	1.69 ± 0.14
CN[C@@H]1C[C@@H](c2ccc(Cl)c(Cl)c2)c2ccccc21 [Indatraline hydrochloride]	0.733 ± 0.12
C#CCN(C)[C@H](C)Cc1ccccc1 [Selegiline hydrochloride]	0.966 ± 0.09
C[C@]12CC[C@H]3[C@@H](CCC4=CC(=O)CC[C@@]43C)[C@@H]1CC[C@@H]2O [Testosterone]	0.742 ± 0.072
C[C@]12C/C(=C/O)C(=O)C[C@@H]1CC[C@@H]1[C@@H]2CC[C@@]2(C)[C@H]1CC[C@]2(C)O [Oxymetholone]	1.29 ± 0.091
FC(F)(F)c1cccc(N2CCNCC2)c1 [TFMPP hydrochloride]	0.987 ± 0.021
CN(C)C(=O)Oc1ccc[n+](C)c1 [Pyridostigmine bromide]	0.943 ± 0.09
Oc1cc(Cl)ccc1Oc1ccc(Cl)cc1Cl [Triclosan]	1.16 ± 0.091
CCOC(=O)c1cncn1[C@H](C)c1ccccc1 [Etomidate]	1.39 ± 0.13
CCOC(=O)C1(c2ccccc2)CCN(CCC(C#N)(c2ccccc2)c2ccccc2)CC1 [Diphenoxylate hydrochloride]	1.09 ± 0.067
CCCCC/C=C\C/C=C\C/C=C\C/C=C\CCCC(=O)Nc1ccc(O)cc1	1.03 ± 0.022
CCCCCCCCCOc1ccc2[nH]cc(CCN)c2c1 [5-Nonyloxytryptamine hydrochloride]	1.7 ± 0.24
COc1ccc(CCN)cc1OC [Homoveratrylamine]	1.35 ± 0.027
O=C(O)C(Cl)Cl [Dichloroacetic acid]	0.922 ± 0.044
C[C@]12CC[C@H](O)CC1=CC[C@@H]1[C@@H]2CC[C@@]2(C)[C@H]1CC[C@]2(C)O [Methylandrostenediol]	1.39 ± 0.11
C=C(C)CN1CC[C@@]23c4c5ccc(O)c4O[C@H]2c2[nH]c4ccccc4c2C[C@]3(O)C1C5 [SDM25N hydrochloride]	0.899 ± 0.1
c1ccc2c(c1)Nc1ccccc1S2 [Phenothiazine]	1.4 ± 0.059
CN1CC[C@@H](c2ccc(F)cc2)[C@H](COc2ccc3c(c2)OCO3)C1 [N-Methylparoxetine]	1.1 ± 0.13
CN1C(=O)CN=C(c2ccccc2)c2cc(Cl)ccc21 [Diazepam]	1.54 ± 0.28

same assay, conditions: priming compound concentration 13 µM

Structure (SMILES)	transfection efficiency
COC(=O)N1CCN(C(=O)Cc2ccc(Cl)c(Cl)c2)C(CN2CCCC2)C1 (centres undefined)	1.02 ± 0.15
c1ccc(Cn2ccnc2)cc1 [Benzylimidazole]	1.08 ± 0.13
O=C1CN=C(c2ccccc2)c2cc([N+](=O)[O-])ccc2N1 [Nitrazepam]	1.15 ± 0.049
C[C@]12CC[C@H](O)CC1=CC[C@@H]1[C@@H]2CC[C@]2(C)C(=O)CC[C@@H]12 [Dehydroepiandrosterone]	1.23 ± 0.2
O=C1CC[C@@]2(O)[C@H]3Cc4ccc(O)c5c4[C@@]2(CCN3CC2CC2)[C@H]1O5 [Naltrexone hydrochloride]	0.988 ± 0.26
N=C(NCc1ccc(Cl)cc1)SCCCc1c[nH]cn1 [Clobenpropit]	0.932 ± 0.16
C=C(C)[C@@H]1[C@H]2OC(=O)[C@@H]1[C@]1(O)C[C@H]3O[C@]34C(=O)O[C@H]2[C@]14C.CC(C)(O)[C@@H]1[C@H]2OC(=O)[C@@H]1[C@]1(O)C[C@H]3O[C@]34C(=O)O[C@H]2[C@]14C [Picrotin - Picrotoxinin]	1.34 ± 0.21
C[C@]12Cc3c[nH]nc3C[C@@H]1CC[C@@H]1[C@@H]2CC[C@@]2(C)[C@H]1CC[C@]2(C)O [Stanozolol]	0.909 ± 0.17
C[N+]1(C)CCCC(OC(=O)C(O)(c2ccccc2)c2ccccc2)C1 (centres undefined) [Mepenzolate bromide]	1.36 ± 0.12
CN[C@@H]1C[C@@H](c2ccc(Cl)c(Cl)c2)c2ccccc21 [Indatraline hydrochloride]	0.8474 ± 0.005
C#CCN(C)[C@H](C)Cc1ccccc1 [Selegiline hydrochloride]	1.13 ± 0.16
C[C@]12CC[C@H]3[C@@H](CCC4=CC(=O)CC[C@@]43C)[C@@H]1CC[C@@H]2O [Testosterone]	1.19 ± 0.25
C[C@]12C/C(=C/O)C(=O)C[C@@H]1CC[C@@H]1[C@@H]2CC[C@@]2(C)[C@H]1CC[C@]2(C)O [Oxymetholone]	1.17 ± 0.28
FC(F)(F)c1cccc(N2CCNCC2)c1 [TFMPP hydrochloride]	1.17 ± 0.31
CN(C)C(=O)Oc1ccc[n+](C)c1 [Pyridostigmine bromide]	1.11 ± 0.25
Oc1cc(Cl)ccc1Oc1ccc(Cl)cc1Cl [Triclosan]	1.33 ± 0.18
CCOC(=O)c1cncn1[C@H](C)c1ccccc1 [Etomidate]	1.47 ± 0.27
CCOC(=O)C1(c2ccccc2)CCN(CCC(C#N)(c2ccccc2)c2ccccc2)CC1 [Diphenoxylate hydrochloride]	0.78 ± 0.33
CCCCC/C=C\C/C=C\C/C=C\C/C=C\CCCC(=O)Nc1ccc(O)cc1	1.3 ± 0.18
CCCCCCCCCOc1ccc2[nH]cc(CCN)c2c1 [5-Nonyloxytryptamine hydrochloride]	0.104 ± 0.1
COc1ccc(CCN)cc1OC [Homoveratrylamine]	1.42 ± 0.41
O=C(O)C(Cl)Cl [Dichloroacetic acid]	1.09 ± 0.16
C[C@]12CC[C@H](O)CC1=CC[C@@H]1[C@@H]2CC[C@@]2(C)[C@H]1CC[C@]2(C)O [Methylandrostenediol]	0.997 ± 0.11
C=C(C)CN1CC[C@@]23c4c5ccc(O)c4O[C@H]2c2[nH]c4ccccc4c2C[C@]3(O)C1C5 [SDM25N hydrochloride]	1.01 ± 0.17
c1ccc2c(c1)Nc1ccccc1S2 [Phenothiazine]	1.33 ± 0.1
CN1CC[C@@H](c2ccc(F)cc2)[C@H](COc2ccc3c(c2)OCO3)C1 [N-Methylparoxetine]	0.588 ± 0.13
CN1C(=O)CN=C(c2ccccc2)c2cc(Cl)ccc21 [Diazepam]	1.07 ± 0.23
